Results as given in the supplement of paper PMC4604168 (melanoma cell lines).
This is one part of the list. Single values are uncertain, as repeats are few or missing.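 The apoptosis fraction was the count of cleaved-PARP antibody-stained nuclei relative to all DNA-stained nuclei, imaged in 1,536-well plates. Screening doses were set so most cells survived, and baseline and induced cleaved-PARP levels vary greatly across cell lines.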

tested on: CBRC014 (line from a melanoma biopsy); assay: cleaved PARP positive nuclei fraction relative to DMSO control; melanoma cells; higher = more apoptosis; details: library dose: low library concentration; 72 h

Row | SMILES | cleaved PARP positive nuclei fraction [%]
1 | Nc1cccc2c1CN(C1CCC(=O)NC1=O)C2=O (stereo unspecified) [lenalidomide] + CC1(C)NC(=O)N(c2ccc([N+](=O)[O-])c(C(F)(F)F)c2)C1=O [nilutamide] (first compound 1 µM, partner dose 1 µM) | 78.2
2 | CO[C@@H]1[C@H](N(C)C(=O)c2ccccc2)C[C@H]2O[C@]1(C)n1c3ccccc3c3c4c(c5c6ccccc6n2c5c31)C(=O)NC4 [Midostaurin] + NCC(=O)Nc1ccc(-n2nc(C(F)(F)F)cc2-c2ccc3c(ccc4ccccc43)c2)cc1 [OSU03012] (first compound 0.08 µM, partner dose 1 µM) | 101
3 | C=CCn1c(=O)c2cnc(Nc3ccc(N4CCN(C)CC4)cc3)nc2n1-c1cccc(C(C)(C)O)n1 + C[C@@H]1CCN(C(=O)CC#N)C[C@@H]1N(C)c1ncnc2[nH]ccc12 [CP690550] (first compound 0.02 µM, partner dose 1 µM) | 95
4 | C=CCNC1=C2C[C@@H](C)C[C@H](OC)[C@H](O)[C@@H](C)/C=C(\C)[C@H](OC(N)=O)[C@@H](OC)/C=C\C=C(/C)C(=O)NC(=CC1=O)C2=O [Tanespimycin] + C=CCn1c(=O)c2cnc(Nc3ccc(N4CCN(C)CC4)cc3)nc2n1-c1cccc(C(C)(C)O)n1 [MK1775] (first compound 0.002 µM, partner dose 0.02 µM) | 121
5 | CC(C)(C)c1cnc(CSc2cnc(NC(=O)C3CCNCC3)s2)o1 + Cc1cc(N2CCOCC2)cc2[nH]c(-c3c(NC[C@@H](O)c4cccc(Cl)c4)cc[nH]c3=O)nc12 [BMS536924] (first compound 0.01 µM, partner dose 0.2 µM) | 88.1
6 | Cc1ccc(NC(=O)c2cccc(N(C)C)c2)cc1NC(=O)c1ccc(O)cc1 + NCC(=O)Nc1ccc(-n2nc(C(F)(F)F)cc2-c2ccc3c(ccc4ccccc43)c2)cc1 [OSU03012] (first compound 2 µM, partner dose 1 µM) | 113
7 | OCc1c[nH]c2ccccc12 [Indole-3-carbinol] + O=C(CCCCCCC(=O)Nc1ccccc1)NO [vorinostat] (first compound 0.8 µM, partner dose 0.08 µM) | 83.7
8 | C=CCn1c(=O)c2cnc(Nc3ccc(N4CCN(C)CC4)cc3)nc2n1-c1cccc(C(C)(C)O)n1 + NCC(=O)Nc1ccc(-n2nc(C(F)(F)F)cc2-c2ccc3c(ccc4ccccc43)c2)cc1 [OSU03012] (first compound 0.02 µM, partner dose 1 µM) | 90.8
9 | COCC[n+]1c2c(n(Cc3cnccn3)c1C)C(=O)c1ccccc1C2=O + CN(NC(=O)CC(=O)NN(C)C(=S)c1ccccc1)C(=S)c1ccccc1 [STA4783] (first compound 0.0004 µM, partner dose 0.006 µM) | 367
10 | Cn1nnc2c(C(N)=O)ncn2c1=O [temozolomide] + CC1(C)NC(=O)N(c2ccc([N+](=O)[O-])c(C(F)(F)F)c2)C1=O [nilutamide] (first compound 2 µM, partner dose 1 µM) | 99.6
11 | COCC[n+]1c2c(n(Cc3cnccn3)c1C)C(=O)c1ccccc1C2=O + O=C(CCCCCCC(=O)Nc1ccccc1)NO [vorinostat] (first compound 0.0004 µM, partner dose 0.08 µM) | 86.2

2 entries from above, tab-delimited.
Row	SMILES	cleaved PARP positive nuclei fraction [%]
10	Cn1nnc2c(C(N)=O)ncn2c1=O [temozolomide] + CC1(C)NC(=O)N(c2ccc([N+](=O)[O-])c(C(F)(F)F)c2)C1=O [nilutamide] (first compound 2 µM, partner dose 1 µM)	99.6
11	COCC[n+]1c2c(n(Cc3cnccn3)c1C)C(=O)c1ccccc1C2=O + O=C(CCCCCCC(=O)Nc1ccccc1)NO [vorinostat] (first compound 0.0004 µM, partner dose 0.08 µM)	86.2
